{"source": "paper PMC4678819", "tested_on": "EcoPI", "experiment": "stopped-flow tryptophan fluorescence", "settings": "250 nM EcoPI, 1 uM DNA, association without ATP, dissociation with 4 mM ATP and 500 uM heparin; Buffer R+: 50 mM Tris-HCl pH 8.0, 50 mM KCl, 10 mM MgCl2, 1 mM DTT, 100 ug/ml BSA, 25 C; recombinant protein", "note": "The exact form of at least one protein or probe is not confirmed. At least one verdict rests on a figure or table, not on a statement of the authors."}
{"sequence": "TGGCTTAGACCACCGCAGATACCAAAACTGTCCTTCTATTGACAATTCG (double strand) [6/38_PI (6/38_EcoPI)]", "values": [{"measurement": "binding result", "value": "binds"}]}
